# Results from patent publication US7384915B2, “Chimeric insulin-gad proteins for treating patients with type 1 diabetes or at risk of developing type 1 diabetes” (Alexion Pharmaceuticals, Inc., priority 1997, dated 2008).
# Some results were stated once for a whole list of compounds, not compound by compound.
# Tested on: non-diabetic male NOD mice
# Assay: CYTOXAN (cyclophosphamide) induced IDDM model, antigen treatment
# Format: in vivo, mouse
# Conditions: single antigen iv twice daily on days 1, 3, 5 after CYTOXAN (day 0); by 21 days; FIG. 2; BSA controls >80%
# Text: Experimental Methods Non-obese diabetic (NOD) mice are a strain of mice that are prone to the development of diabetes, and represent an accepted model system for the study of diabetes mellitus. These mice, designated NOD/MrkTacfBR, were purchased from Taconic Farms (Germantown, N.Y.). NOD SCID mice, designated NOD/SCID, are available from the Jackson Laboratories, Bar Harbor, Me. The incidence of diabetes by 200 days of age in these mice is 80% in females and 50% in males. At 110 days of age, fewer than 15% of the male NOD mice became diabetic. […] In contrast, animals treated with either ICB or either of GAD 65 250-273 or 520-555 peptides, experienced reductions to less than 50% incidence of diabetes. The therapeutic effects of treatment with combinations of ICB and the two GAD peptides were then examined (FIG. 3).
row,Substance,incidence of diabetes
1,"GAD 65 520-555: human GAD 65 peptide 520-555, sequence corresponding to amino acid residues 139-173 of SEQ ID NO:2 (EERMSRLSKVAPVIKARMMEYGTTMVSYQPLGDKV; IG2 fusion protein for hGAD65 (human glutamate decarboxylase))",less than 50%
2,ICB: Oxidized bovine insulin Chain B purchased from Sigma (catalog no. I-6383),less than 50%
3,"GAD 65 250-273: human GAD 65 peptide 250-273 (AMMIARFKMFPEVKEKGMAALPRL; UniProt Q05329 250-273, looked up, fragment)",less than 50%
